These are yes or no findings as the source states them, for the method shown. Binding seen in cells or lysates may run through a third protein. Some entries that bind do so weakly or less than the wild type. Tags and fused reporters may be left off the sequences shown.
How the values were obtained:
[1] = molecular target: T1, MYC tagged SEF-FL (full length human SEF in PCDNA4 VERSION A expression plasmid) (human) (UniProt Q8NFM7); assay: co-immunoprecipitation from lysates of 293T cells co-transfected with FLAG and MYC tagged SEF-FL: IP anti-MYC with blot anti-FLAG M2, and the reciprocal IP anti-FLAG M2
T1 sequence: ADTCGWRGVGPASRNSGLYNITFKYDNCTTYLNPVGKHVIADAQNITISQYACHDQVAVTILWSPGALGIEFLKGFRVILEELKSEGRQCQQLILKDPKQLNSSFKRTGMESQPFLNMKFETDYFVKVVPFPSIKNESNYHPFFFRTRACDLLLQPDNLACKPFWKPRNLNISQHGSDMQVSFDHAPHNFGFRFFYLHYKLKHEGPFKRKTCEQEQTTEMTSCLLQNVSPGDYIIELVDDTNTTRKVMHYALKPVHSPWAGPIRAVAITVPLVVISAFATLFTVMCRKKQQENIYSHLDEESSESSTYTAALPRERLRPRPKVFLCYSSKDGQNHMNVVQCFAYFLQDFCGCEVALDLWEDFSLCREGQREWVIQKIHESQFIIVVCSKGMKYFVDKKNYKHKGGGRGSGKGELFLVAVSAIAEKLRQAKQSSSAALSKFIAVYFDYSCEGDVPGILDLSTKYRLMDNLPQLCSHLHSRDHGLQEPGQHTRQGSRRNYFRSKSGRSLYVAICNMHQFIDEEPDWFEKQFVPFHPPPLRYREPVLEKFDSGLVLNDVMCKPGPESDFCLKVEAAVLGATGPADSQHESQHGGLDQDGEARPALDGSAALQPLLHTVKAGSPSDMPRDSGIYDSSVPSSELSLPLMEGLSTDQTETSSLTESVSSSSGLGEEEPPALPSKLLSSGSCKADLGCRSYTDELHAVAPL

[2] = molecular target: T1, MYC tagged SEF-FL (full length human SEF in PCDNA4 VERSION A expression plasmid) (human); assay: co-immunoprecipitation and western blot of Flag_SEF and SEF_Myc co-transfected cells

binding [1]: binds | binding [2]: binds
B1: FLAG tagged SEF-FL (full length human SEF in PFLAG-CMV-1 expression vector) (receptor, not shown: small tags and cut ends)
chain: ADTCGWRGVGPASRNSGLYNITFKYDNCTTYLNPVGKHVIADAQNITISQYACHDQVAVTILWSPGALGIEFLKGFRVILEELKSEGRQCQQLILKDPKQLNSSFKRTGMESQPFLNMKFETDYFVKVVPFPSIKNESNYHPFFFRTRACDLLLQPDNLACKPFWKPRNLNISQHGSDMQVSFDHAPHNFGFRFFYLHYKLKHEGPFKRKTCEQEQTTEMTSCLLQNVSPGDYIIELVDDTNTTRKVMHYALKPVHSPWAGPIRAVAITVPLVVISAFATLFTVMCRKKQQENIYSHLDEESSESSTYTAALPRERLRPRPKVFLCYSSKDGQNHMNVVQCFAYFLQDFCGCEVALDLWEDFSLCREGQREWVIQKIHESQFIIVVCSKGMKYFVDKKNYKHKGGGRGSGKGELFLVAVSAIAEKLRQAKQSSSAALSKFIAVYFDYSCEGDVPGILDLSTKYRLMDNLPQLCSHLHSRDHGLQEPGQHTRQGSRRNYFRSKSGRSLYVAICNMHQFIDEEPDWFEKQFVPFHPPPLRYREPVLEKFDSGLVLNDVMCKPGPESDFCLKVEAAVLGATGPADSQHESQHGGLDQDGEARPALDGSAALQPLLHTVKAGSPSDMPRDSGIYDSSVPSSELSLPLMEGLSTDQTETSSLTESVSSSSGLGEEEPPALPSKLLSSGSCKADLGCRSYTDELHAVAPL

Reference: patent publication US20040235104A1
